Screen size: about 400,000 compounds; about 13,000 (3.2%) were called active. Inconclusive results, whose numbers are uncertain, are shown with a selection of clear calls. Calls come from the whole dose curve; as a rule, active = well fitted cell-killing curve with a large enough effect; inconclusive = small, poorly fitted or top-dose-only effect, or effect the other way; inactive = flat fitted curve, though single readings scatter. Potencies of inconclusive entries are doubtful fits and often do not repeat.
Test: qHTS assay for MDR1-selective chemotherapeutics: Primary screen using the drug-selected MDR subline cells KB-V1; note: nearly all actives have a fitted effect of over 60% in size
Settings: KB-V1 MDR cells viability, CellTiter-Glo, 72 h; series mostly up to 46.1 µM
Summary of the method: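 Cytotoxicity via CellTiter-Glo luminescence after 72 h compound exposure at 37 degrees C. Cells: drug-selected KB-V1 line, DMEM phenol-red free plus 10% FBS. Compounds tested at multiple concentrations; normalized data fitted to concentration-effect curves.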
Potency is the fitted concentration of half-maximal effect.

Compound	Potency
O=[N+]([O-])c1ccccc1S(=O)(=O)NCCC1=CCCCC1	active: 14.6 µM
CCOc1ccccc1NC(=O)c1c(NC(=O)COc2ccccc2)sc2c1CCCCC2	inconclusive: 6.51 µM [cytotoxic, partial curve]
CC(C)CN1CCNC(=O)C1CC(=O)NCCc1ccc(C(F)(F)F)cc1 (centres undefined)	inconclusive: 29.1 µM [rising, single point]
O=C(NCCN1CCOCC1)c1ccc(CS(=O)c2ccccc2Cl)o1 (centres undefined)	inconclusive: 18.4 µM [rising, single point]
O=C(NCCCN1CCN(c2cccc(Cl)c2)CC1)C1CCC(=O)N1Cc1ccccc1Cl (centres undefined)	inconclusive: 23.1 µM [cytotoxic, single point]
O=[N+]([O-])c1cc(C(F)(F)F)ccc1N1CCN(S(=O)(=O)c2ccc3ccccc3c2)CC1	active: 5.17 µM
O=C(N/N=C\c1c(O)ccc2ccccc12)c1ccc(Cn2cccn2)o1	inconclusive: 13 µM [cytotoxic, partial curve, poor fit]
CCCCNC(=O)OCC(CC)NC(=O)OC(C)C (centres undefined)	inconclusive: 29.1 µM [cytotoxic, partial curve, poor fit]
CSc1ccc(CN2CCC2(C)C(=O)Nc2ccc(C)c(O)c2)cc1 (centres undefined)	inactive
COc1cc(NC(=O)c2ccccc2)c(OC)cc1NC(=O)CN1C(=O)N(C)C2(CCCCC2)C1=O	inactive
O=C1CC(=O)N2N=C(c3ccc([N+](=O)[O-])cc3)SC2=N1	inconclusive: 29.1 µM [rising, single point]
COc1ccc(CCNC(=O)c2cnc3ccc(C)cn3c2=O)cc1	inactive
COc1cccc(Cn2c(Oc3ccccc3)nc3c2c(=O)n(C)c(=O)n3C)c1	inconclusive: 23.1 µM [cytotoxic, single point]
CC1CCN(C(=O)CSCc2ccc(Cl)cc2)CC1	inconclusive: 7.31 µM [cytotoxic, partial curve, poor fit]
C=CCn1c(=S)[nH]c2ccc(Br)cc2c1=O	inconclusive: 18.4 µM [cytotoxic, single point]
O=C(c1ccc(F)cc1)c1ccc(N2CCCC2)cc1	inconclusive: 23.1 µM [cytotoxic, single point]
Cc1ccc2nc3c(cc(C(=O)NCCc4ccccc4)c(=N)n3CC3CCCO3)c(=O)n2c1 (centres undefined)	inconclusive: 23.1 µM [cytotoxic, partial curve]
O=S(=O)(NCCC1=CCCCC1)c1ccccc1Br	inconclusive: 29.1 µM [cytotoxic, single point]
COc1cccc(Cn2nnc(C(=O)Nc3cc(C)ccc3C)c2N)c1	inactive

Look-ups from the results shown.
Potency with COc1cccc(Cn2c(Oc3ccccc3)nc3c2c(=O)n(C)c(=O)n3C)c1 reads inconclusive: 23.1 µM [cytotoxic, single point]
Potency with O=C(NCCCN1CCN(c2cccc(Cl)c2)CC1)C1CCC(=O)N1Cc1ccccc1Cl (centres undefined) reads inconclusive: 23.1 µM [cytotoxic, single point]

From PubChem BioAssay AID1347076 (National Center for Advancing Translational Sciences (NCATS), 2019)
